The nature of the series: peptide made by a vendor. Particulars: whole synthesis, HPLC.

Turning to H-GNLVAICLGAV-OH, the “purity (crude or final not stated)” value is given as 90%.

Source of the values: patent publication US8614188B2 (University of Massachusetts, priority 2006, dated 2013).
